Results deposited as PubChem BioAssay AID743454 (Peter MacCallum Cancer Centre, 2014)
Here is a random part of about 18,000 deposited reagents. In the full data, 450 (2.5%) were called active. 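Single biological run; no consistent viability z cut-off exists, so the class columns, not z-scores, define the calls.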 Unmarked entries are inactive.

Purpose: 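Genes whose loss kills vorinostat-resistant colon cancer cells under vorinostat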 (primary screen)
Cells: human HCT116-VR colon cancer cells, selected for vorinostat resistance
Knock-down reagent: siRNA pool against human genes, 40 nM siRNA pool
Duration: vorinostat for 24 h, read-out about 72 h after transfection
Challenge: vorinostat at 2.5 µM final
Measurement: 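Two measures, CellTiter-Fluor viability and luminescent caspase 3/7 activity, each as fold change against same-plate mock wells, mean of duplicates, then screen-wide robust z-score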
Reading the numbers: viability robust z-score: higher = more viable cells than screen typical; caspase robust z-score: higher = more caspase 3/7 activity than screen typical
Active means: 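a knock-down is a hit when classed RV1 or RV2 for lowered viability, or CA1 or CA2 for caspase activation; those lethal without drug were dropped; hits were retested singly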

no.	target	viability hit class	caspase hit class	viability robust z-score	caspase robust z-score
1	TBXA2R (thromboxane A2 receptor)	no change	no change	-1.66	-0.63
2	STOML3 (stomatin like 3)	no change	no change	1.32	-0.32
3	PRSS16 (serine protease 16)	no change	no change	0.98	-0.93
4	PRELID3A (PRELI domain containing 3A)	no change	no change	-0.84	0.24
5	RAB24 (RAB24, member RAS oncogene family)	no change	no change	0.84	0.57
6	MAF (MAF bZIP transcription factor)	no change	no change	0.28	-0.07
7	MYH11 (myosin heavy chain 11)	no change	no change	-0.62	2
8	ITGA4 (integrin subunit alpha 4)	no change	no change	0.02	-0.85
9	MTMR11 (myotubularin related protein 11)	no change	no change	-0.7	-0.43
10	SLC5A10	no change	no change	0.21	0.19
11	TMEM9B (TMEM9 domain family member B)	no change	no change	-0.84	0.48
12	LAMB1 (laminin subunit beta 1)	no change	no change	0.86	0.5
13	TBC1D24 (TBC1 domain family member 24)	no change	no change	-1.23	4.46
14	AURKA (aurora kinase A)	no change	no change	-4.04	1.35
15	KRTAP5-7 (keratin associated protein 5-7)	no change	no change	-1.44	2.19
16	APMAP (adipocyte plasma membrane associated protein)	no change	no change	-1.18	-0.42
17	SARS2 (seryl-tRNA synthetase 2, mitochondrial)	no change	no change	-0.35	1.34
18	RBM48 (RNA binding motif protein 48)	no change	no change	0.02	-1.24
19	SSMEM1 (serine rich single-pass membrane protein 1)	no change	no change	-0.43	-0.74
20	LRRIQ1 (leucine rich repeats and IQ motif containing 1)	no change	no change	0.88	-0.65
21	ARPC5 (actin related protein 2/3 complex subunit 5)	no change	no change	-1.52	-1.09
22	CDHR2 (cadherin related family member 2)	no change	no change	0.29	-0.84
23	OTOF (otoferlin)	no change	no change	0.68	0.63
24	METTL4 (methyltransferase 4, N6-adenosine)	no change	no change	1	-0.96
25	ZNF366 (zinc finger protein 366)	no change	no change	-1.47	1.17
26	DNAH1 (dynein axonemal heavy chain 1)	no change	no change	0.08	-0.38
27	ZNF835 (zinc finger protein 835)	no change	no change	1.22	1.33
28	DOC2A (double C2 domain alpha)	no change	no change	-0.1	1.34
29	RPE65 (retinoid isomerohydrolase RPE65)	no change	no change	-0.47	-0.49
30	CCDC191 (coiled-coil domain containing 191)	no change	no change	-1.57	2.77
31	PNPLA7 (patatin like domain 7, lysophospholipase)	no change	no change	0.32	0.79
32	AOC2 (amine oxidase copper containing 2)	no change	no change	-0.44	-1.03
33	ANKRD36B (ankyrin repeat domain 36B)	no change	no change	-0.42	-0.32
34	CCDC124 (coiled-coil domain containing 124)	no change	no change	0.08	0.72
35	ARID1B (AT-rich interaction domain 1B)	no change	no change	-0.84	1.22
36	ZAP70 (zeta chain of T cell receptor associated protein kinase 70)	no change	no change	-0.98	1.55
37	COPRS (coordinator of PRMT5 and differentiation stimulator)	no change	no change	-0.03	2.73
38	USP30 (ubiquitin specific peptidase 30)	no change	no change	0.34	0.6
39	ABCC4 (ATP binding cassette subfamily C member 4 (PEL blood group))	no change	no change	-1.61	3.12
40	KPTN (kaptin, actin binding protein)	no change	no change	-0.3	1.32
41	RARS2 (arginyl-tRNA synthetase 2, mitochondrial)	no change (active)	CA1 (caspase activation)	-0.6	5.49
42	EXD1 (exonuclease 3'-5' domain containing 1)	no change	no change	-0.2	-0.33
43	ADRA1B (adrenoceptor alpha 1B)	no change	no change	-1.1	1.91
44	NDC1 (NDC1 transmembrane nucleoporin)	no change	no change	0.47	-0.76
45	CABP2 (calcium binding protein 2)	no change	no change	0.63	-0.8
46	LAPTM4B (lysosomal protein transmembrane 4 beta)	no change	no change	0.62	-0.38
47	PLLP (plasmolipin)	no change	no change	-0.02	2.21
48	CRIPT (CXXC repeat containing interactor of PDZ3 domain)	no change	no change	-0.16	-0.42
49	LRRC61 (leucine rich repeat containing 61)	no change	no change	-0.78	-0.2
50	ATP5F1C (ATP synthase F1 subunit gamma)	no change	no change	1.32	1.28
51	S1PR5 (sphingosine-1-phosphate receptor 5)	no change	no change	-0.36	-0.6
52	POLM (DNA polymerase mu)	no change	no change	0.28	1.55
53	SMPD2 (sphingomyelin phosphodiesterase 2)	no change	no change	0.46	2.48
54	ZDHHC9 (zDHHC palmitoyltransferase 9)	no change	no change	0.13	3.3
55	CFAP418 (cilia and flagella associated protein 418)	no change	no change	1.14	-0.33
56	WDR88 (WD repeat domain 88)	no change	no change	-0.22	1.56
57	TSPOAP1 (TSPO associated protein 1)	no change	no change	-0.73	2.21

Reagents listed above with an active call (1):
target	viability hit class	caspase hit class	viability robust z-score	caspase robust z-score
RARS2 (arginyl-tRNA synthetase 2, mitochondrial)	no change (active)	CA1 (caspase activation)	-0.6	5.49
